Measured values taken from patent publication US20170000132A1, “BENZOXABOROLE FUNGICIDES” (SYNGENTA PARTICIPATIONS AG, priority 2013, published 2017).
Some entries share one result that the patent states for a list of compounds. At least one compound was matched to its structure with a doubt left.

Tested on: Pythium ultimum
Assay: Pythium ultimum / liquid culture (seedling damping off)
Type: cell-based
Details: 200 ppm, potato dextrose broth, 2-3 days after application

| SMILES | disease control (inhibition of growth, photometric) |
| --- | --- |
| O=C(NN=Cc1cc(F)cc2c1B(O)OC2)c1ccnc(Cl)c1 (single isomer, unassigned) [Compound 250] | at least 80% |
| OB1OCc2cc(F)cc(C=NNc3nc4ccccc4o3)c21 (single isomer, unassigned) [Compound 242] | at least 80% |
| O=C(NN=Cc1cccc2c1B(O)OC2)c1ccc2ccccc2n1 (single isomer, unassigned) [Compound 303] | at least 80% |
| O=C(NN=Cc1cccc2c1B(O)OC2)c1ccccc1[N+](=O)[O-] (single isomer, unassigned) [Compound 307] | at least 80% |
| O=C(NN=Cc1cc(F)cc2c1B(O)OC2)c1ccc(Cl)cc1 (single isomer, unassigned) [Compound 230] | at least 80% |
| OB1OCc2cccc(C=NNc3c(Cl)cccc3Cl)c21 (single isomer, unassigned) [Compound 320] | at least 80% |
| O=C(NN=Cc1cc(F)cc2c1B(O)OC2)Nc1ccccc1 (single isomer, unassigned) [Compound 232] | at least 80% |
| OB1OCc2cc(F)cc(C=NNC(=S)NC3CCCCC3)c21 (single isomer, unassigned) [Compound 270] | at least 80% |
| CCC(=O)OCNN=Cc1cc(Cl)cc2c1B(O)OC2 (single isomer, unassigned) [Compound 177] | at least 80% |
| O=C(NN=Cc1ccc2c(c1)COB2O)c1ccc(Cl)cc1 (single isomer, unassigned) [Compound 360] | at least 80% |
| O=C(NN=Cc1cc2c(cc1F)COB2O)c1ccc2ccccc2n1 (single isomer, unassigned) [Compound 79] | at least 80% |
| OB1OCc2cc(F)cc(C=NNc3ccnc4cc(Cl)ccc34)c21 (single isomer, unassigned) [Compound 233] | at least 80% |
| O=C(NN=Cc1cc(Cl)cc2c1B(O)OC2)c1ccc2ccccc2n1 (single isomer, unassigned) [Compound 158] | at least 80% |
| OB1OCc2cc(Cl)cc(C=NNc3cc(Cl)cc(Cl)c3)c21 (single isomer, unassigned) [Compound 173] | at least 80% |
| CC(ON=Cc1cc2c(cc1F)COB2O)C(=O)O (centres unmarked) [Compound 129] | at least 80% |
| O=C(NN=Cc1cc(F)cc2c1B(O)OC2)c1cccnc1 (single isomer, unassigned) [Compound 234] | at least 80% |
| OB1OCc2cc(F)cc(C=NNc3ccc(OCc4ccc(Cl)cc4)cc3)c21 (single isomer, unassigned) [Compound 237] | at least 80% |
| OB1OCc2cc(F)cc(C=NNC(=S)Nc3ccccc3)c21 (mixture of isomers) [Compound 267] | at least 80% |
| Cc1ccc(NN=Cc2cc(F)cc3c2B(O)OC3)cc1 (single isomer, unassigned) [Compound 241] | at least 80% |
| C#CCOc1cc(C(=O)NN=Cc2ccc3c(c2)COB3O)c(F)cc1Cl (single isomer, unassigned) [Compound 384] | at least 80% |

| SMILES | disease control (inhibition of growth, photometric) |
| --- | --- |
| OB1OCc2cccc(C=NNCc3ccccc3)c21 (single isomer, unassigned) [Compound 313] | at least 80% |
| CCOC(=O)NN=Cc1ccc2c(c1)COB2O (single isomer, unassigned) [Compound 371] | at least 80% |
| OB1OCc2cc(C=NNc3nc4ccccc4o3)ccc21 (single isomer, unassigned) [Compound 370] | at least 80% |
| COc1ccc(NN=Cc2cc(Cl)cc3c2B(O)OC3)cc1 (single isomer, unassigned) [Compound 179] | at least 80% |
| OB1OCc2cc(Cl)cc(C=NNc3cccc(Cl)n3)c21 (single isomer, unassigned) [Compound 162] | at least 80% |
| O=C(NN=Cc1cc(F)cc2c1B(O)OC2)C1CC1 (single isomer, unassigned) [Compound 253] | at least 80% |
| C#CCOc1cc(C(=O)NN=Cc2cc3c(cc2F)COB3O)c(F)cc1Cl (single isomer, unassigned) [Compound 111] | at least 80% |
| O=C(O)CCCON=Cc1ccc2c(c1)COB2O (single isomer, unassigned) [Compound 419] | at least 80% |
| COc1ccc(NN=Cc2cc(F)cc3c2B(O)OC3)cc1 (single isomer, unassigned) [Compound 258] | at least 80% |
| OB1OCc2cc(Cl)cc(C=NNc3nc4ccccc4o3)c21 (single isomer, unassigned) [Compound 166] | at least 80% |
| OB1OCc2cc(Cl)cc(C=NNC(=S)Nc3ccccc3)c21 (single isomer, unassigned) [Compound 186] | at least 80% |
| OB1OCc2cc(F)cc(C=NNC(=S)N3CCCC3)c21 (single isomer, unassigned) [Compound 252] | at least 80% |
| OB1OCc2cc(C=NNC(=S)N3CCCC3)ccc21 (single isomer, unassigned) [Compound 430] | at least 80% |
| O=C(NN=Cc1cc(Cl)cc2c1B(O)OC2)c1cc(Cl)ccc1Cl (single isomer, unassigned) [Compound 161] | at least 80% |
| NN=Cc1cc(F)cc2c1B(O)OC2 (single isomer, unassigned) [Compound 300] | at least 80% |
| C#CCOc1cc(C(=O)NN=Cc2cc(F)cc3c2B(O)OC3)c(F)cc1Cl (single isomer, unassigned) [Compound 261] | at least 80% |
| O=C(NN=Cc1cc(Cl)cc2c1B(O)OC2)c1ccc(Cl)cc1 (single isomer, unassigned) [Compound 157] | at least 80% |
| OB1OCc2cc(F)cc(C=NNc3ccc(C(F)(F)F)cc3)c21 (single isomer, unassigned) [Compound 264] | at least 80% |
| OB1OCc2cc(F)cc(C=NNCc3ccccc3)c21 (single isomer, unassigned) [Compound 246] | at least 80% |
| C=CCNC(=S)NN=Cc1cc(Cl)cc2c1B(O)OC2 (single isomer, unassigned) [Compound 187] | at least 80% |

| SMILES | disease control (inhibition of growth, photometric) |
| --- | --- |
| NC(=S)NN=Cc1cc2c(cc1F)COB2O (single isomer, unassigned) [Compound 156] | at least 80% |
| OB1OCc2cc(F)cc(C=NNc3c(Cl)cccc3Cl)c21 (single isomer, unassigned) [Compound 265] | at least 80% |
| O=C(NN=Cc1cc(F)cc2c1B(O)OC2)c1cc(Cl)ccc1Cl (single isomer, unassigned) [Compound 236] | at least 80% |
| O=C(NN=Cc1cc(F)cc2c1B(O)OC2)c1ccccc1[N+](=O)[O-] (single isomer, unassigned) [Compound 239] | at least 80% |
| C#CCOc1cc(C(=O)NN=Cc2cc(Cl)cc3c2B(O)OC3)c(F)cc1Cl (single isomer, unassigned) [Compound 182] | at least 80% |
| OB1OCc2cc(Cl)cc(C=NNc3ncc(C(F)(F)F)cc3Cl)c21 (single isomer, unassigned) [Compound 181] | at least 80% |
| CCOC(=O)NN=Cc1cc(F)cc2c1B(O)OC2 (single isomer, unassigned) [Compound 243] | at least 80% |
| Cn1cc(C(=O)NN=Cc2cc(F)cc3c2B(O)OC3)c(C(F)(F)F)n1 (single isomer, unassigned) [Compound 266] | at least 80% |
| C=CCNC(=S)NN=Cc1cc2c(cc1F)COB2O (single isomer, unassigned) [Compound 118] | at least 80% |
| O=C(O)CCCON=Cc1cc2c(cc1F)COB2O (single isomer, unassigned) [Compound 145] | at least 80% |
| C#CCOc1cc(C(=O)NN=Cc2cccc3c2B(O)OC3)c(F)cc1Cl (single isomer, unassigned) [Compound 317] | at least 80% |
| CNC(=S)NN=Cc1cc2c(cc1F)COB2O (single isomer, unassigned) [Compound 155] | at least 80% |
| OB1OCc2cc(F)c(C=NNc3ncc(C(F)(F)F)cc3Cl)cc21 (single isomer, unassigned) [Compound 110] | at least 80% |
| OB1OCc2cc(Cl)cc(C=NNC(=S)NCc3ccccc3)c21 (single isomer, unassigned) [Compound 223] | at least 80% |
| OB1OCc2cccc(C=NNc3cccc(Cl)n3)c21 (single isomer, unassigned) [Compound 306] | at least 80% |
| OB1OCc2cc(F)c(C=NNC(=S)Nc3ccccc3)cc21 (single isomer, unassigned) [Compound 117] | at least 80% |
| OB1OCc2cc(C=NNc3ncc(C(F)(F)F)cc3Cl)ccc21 (single isomer, unassigned) [Compound 383] | at least 80% |
| OB1OCc2cccc(C=NNC(=S)NCc3ccccc3)c21 (single isomer, unassigned) [Compound 358] | at least 80% |
| O=C(NN=Cc1cccc2c1B(O)OC2)Nc1ccccc1 (single isomer, unassigned) [Compound 304] | at least 80% |
